Data as given in the supplement of paper PMC3334620.
Whole data set: some 33,000 sequences, median “E-score (-0.5 to 0.5)” near -0.0034, cut for the highest 2% near 0.25. The list shows a part of the results.

Each sequence was assayed against T1, Yap3 (UniProt P38749) (assay: PBM E-score (8-mer binding enrichment) (E-score (-0.5 to 0.5)); higher = stronger / more preferred TF binding). Settings: protein concentration: 100 nM; construct: GST-full length.
T1 sequence: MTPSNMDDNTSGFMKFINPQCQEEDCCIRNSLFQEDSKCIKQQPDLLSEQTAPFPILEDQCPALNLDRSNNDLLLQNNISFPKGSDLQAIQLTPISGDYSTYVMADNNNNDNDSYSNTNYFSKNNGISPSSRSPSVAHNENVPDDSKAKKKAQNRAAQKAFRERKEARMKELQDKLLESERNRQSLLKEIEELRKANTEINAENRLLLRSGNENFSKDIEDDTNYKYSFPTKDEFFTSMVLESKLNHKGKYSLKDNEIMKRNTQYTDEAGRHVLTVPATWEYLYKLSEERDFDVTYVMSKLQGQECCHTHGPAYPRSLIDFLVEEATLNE
Procedure, shortened: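 Detection of bound protein used fluorescent anti-GST, with scans normalised by masliner. The proteins were GST-tagged yeast transcription factors applied at about 100-200 nM to universal all-10-mer Agilent arrays made double-stranded by primer extension. Each ungapped eight-base word, pooled with its reverse complement, was scored with an E-score from the Universal PBM Analysis Suite.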

Compared with AATGGAAA, CGGCTCAC is lower in “PBM E-score” value: 0.152 for the first, 0.0406 for the second.

Compared with GCCGGTCC, GCAGAGAA is higher in “PBM E-score” value: -0.402 for the first, 0.0856 for the second.

First: AGCGGTAC
Second: AAAGGATA
The “PBM E-score” value of the first is lower: 0.142 for the first, 0.172 for the second.

Going from ATTGAGAG to ACTGGTCA, the “PBM E-score” value falls from 0.0887 to -0.0141.

First: GATTATAA
Second: AATCACAA
The “PBM E-score” value of the first is higher: 0.244 for the first, 0.0514 for the second.

Compared with AGTCCGAT, GTCTCAAC is lower in “PBM E-score” value: 0.0837 for the first, -0.0974 for the second.

Compared with AAGGGCAT, CTCACGCC is higher in “PBM E-score” value: -0.253 for the first, -0.0142 for the second.

First: GTACAGAA
Second: GGGAGACC
The “PBM E-score” value of the first is higher: -0.00324 for the first, -0.443 for the second.

Compared with GTGATGTA, AACCCGCC is lower in “PBM E-score” value: 0.194 for the first, -0.0463 for the second.

First: ATATAGGG
Second: GTCGCCCA
The “PBM E-score” value of the first is higher: -0.0709 for the first, -0.306 for the second.

Compared with CACACTGA, ACACGTAA is higher in “PBM E-score” value: -0.0359 for the first, 0.217 for the second.

First: CTACTACC
Second: TGCCTTAA
The “PBM E-score” value of the first is higher: -0.0382 for the first, -0.076 for the second.

Compared with GGTTAAAA, CGCTAACG is lower in “PBM E-score” value: 0.107 for the first, 0.0265 for the second.

Going from GCAAGGCC to TTCTCCAA, the “PBM E-score” value rises from -0.115 to 0.018.

Compared with CCGAGCGC, TAGTCTAA is higher in “PBM E-score” value: 0.00891 for the first, 0.0413 for the second.

First: AATTGTTC
Second: CCTAAACA
The “PBM E-score” value of the first is higher: 0.257 for the first, 0.0799 for the second.

Compared with ATATCCAA, CTGAGTCC is lower in “PBM E-score” value: 0.178 for the first, -0.18 for the second.

Going from AGCATGAC to AGATGTGG, the “PBM E-score” value rises from -0.037 to -0.00289.

Compared with CTTGTCAC, CGTGGGTA is lower in “PBM E-score” value: -0.129 for the first, -0.169 for the second.

Going from AAGACAAG to GAAAGGGC, the “PBM E-score” value falls from 0.045 to -0.321.

First: AATCGATC
Second: GCAAGTAC
The “PBM E-score” value of the first is higher: 0.156 for the first, -0.118 for the second.

First: CCAGCAAG
Second: GGAGGGGA
The “PBM E-score” value of the first is lower: -0.241 for the first, -0.122 for the second.

Going from GCCAACAA to CACGGCCA, the “PBM E-score” value falls from -0.049 to -0.154.

First: CCTATGCC
Second: TGCGGTAA
The “PBM E-score” value of the first is lower: -0.0946 for the first, -0.0155 for the second.

Compared with ACAAAACG, AATAGTGT is higher in “PBM E-score” value: 0.173 for the first, 0.186 for the second.

Going from CGGTCACA to GAGGTAGC, the “PBM E-score” value falls from 0.0249 to -0.194.

First: AAGTCGTG
Second: AGCAGACC
The “PBM E-score” value of the first is lower: -0.0136 for the first, 0.00631 for the second.

First: CCTCTGTA
Second: GACTAACA
The “PBM E-score” value of the first is lower: -0.0106 for the first, 0.142 for the second.

Compared with ACCGGTCC, AGCCTTAC is higher in “PBM E-score” value: -0.296 for the first, -0.163 for the second.

Going from CGTGCTGA to TACCCCCA, the “PBM E-score” value falls from 0.0619 to -0.131.

First: CAGCATCC
Second: GATCCTGA
The “PBM E-score” value of the first is higher: -0.0272 for the first, -0.0394 for the second.

Compared with CCGAGGGC, AACCTAGG is lower in “PBM E-score” value: -0.114 for the first, -0.123 for the second.

Going from AAACGACG to GCCGGGAA, the “PBM E-score” value falls from 0.0166 to -0.209.

First: CTTGAATC
Second: CTGGAGGA
The “PBM E-score” value of the first is higher: -0.0309 for the first, -0.236 for the second.

Compared with CGGGGCAG, CCGACGAG is higher in “PBM E-score” value: -0.169 for the first, -0.0276 for the second.

Going from CAAGATCC to CACCCAAG, the “PBM E-score” value falls from 0.027 to -0.127.

Going from GAGAACTA to TCATAGCA, the “PBM E-score” value falls from 0.126 to 0.0921.

Going from AACCTAGA to GAACCGCA, the “PBM E-score” value falls from 0.0352 to 0.0221.

First: ATGACTGA
Second: AAGCAACG
The “PBM E-score” value of the first is lower: 0.0192 for the first, 0.206 for the second.

First: CGCATTCA
Second: GTCTCTTA
The “PBM E-score” value of the first is higher: 0.147 for the first, 0.0442 for the second.

Compared with CTAGTGGA, AATGCTAC is higher in “PBM E-score” value: -0.162 for the first, 0.0564 for the second.

Compared with ACGAAACT, AGAGGGCA is lower in “PBM E-score” value: -0.00832 for the first, -0.192 for the second.

Compared with GCGCCCAC, AAAGTGAG is higher in “PBM E-score” value: -0.0948 for the first, 0.202 for the second.

First: ATAGCGAC
Second: ACATGTCT
The “PBM E-score” value of the first is lower: -0.0481 for the first, 0.0711 for the second.

Compared with ATATACGA, ATTCGTCC is higher in “PBM E-score” value: 0.0617 for the first, 0.213 for the second.

Compared with CGCAGCGC, GGTCCTAC is lower in “PBM E-score” value: -0.124 for the first, -0.239 for the second.

Going from ATGATCAA to CCGAGCCG, the “PBM E-score” value falls from 0.131 to 0.0228.

Compared with ATCAACCA, CCGGTTAC is lower in “PBM E-score” value: 0.0491 for the first, 0.0259 for the second.

Compared with AGCGCTGA, CATGGCAG is higher in “PBM E-score” value: -0.0364 for the first, 0.00112 for the second.

First: ATTCTTGA
Second: ATTGCCCG
The “PBM E-score” value of the first is higher: 0.163 for the first, -0.015 for the second.

First: GCTGATCA
Second: TATTGAAA
The “PBM E-score” value of the first is lower: -0.0252 for the first, 0.254 for the second.

First: CGCGCCAA
Second: TGAAGGAA
The “PBM E-score” value of the first is lower: -0.0259 for the first, 0.0749 for the second.

Going from ATATCACC to ACGGGTCG, the “PBM E-score” value falls from 0.235 to 0.0117.

First: CCGCAACA
Second: CGCATCAG
The “PBM E-score” value of the first is lower: 0.066 for the first, 0.0688 for the second.

First: CCGTTCTA
Second: ATGTAGCC
The “PBM E-score” value of the first is higher: 0.0674 for the first, -0.126 for the second.

Compared with ACATTGGA, ACGAAGCT is higher in “PBM E-score” value: -0.0349 for the first, 0.0423 for the second.

Compared with AGAGCCGC, ATTTAATG is higher in “PBM E-score” value: -0.0382 for the first, 0.282 for the second.

Compared with AAGTGCTG, AAAGGCTT is lower in “PBM E-score” value: 0.043 for the first, 0.00142 for the second.

First: GATTCTTA
Second: AATGTTGA
The “PBM E-score” value of the first is higher: 0.201 for the first, 0.0691 for the second.

First: TGATAGAA
Second: TCTCCAAA
The “PBM E-score” value of the first is higher: 0.0457 for the first, 0.0406 for the second.

Going from ACTCATTC to GTATATTA, the “PBM E-score” value rises from 0.16 to 0.211.

Going from AGGTCTAC to CGCTATCC, the “PBM E-score” value rises from -0.138 to 0.0718.

Going from CATCGAAG to AATTCTGG, the “PBM E-score” value falls from 0.0748 to -0.00568.

Compared with ATTCGTGC, CTGTCCTA is lower in “PBM E-score” value: 0.104 for the first, -0.139 for the second.

Going from AACAACCC to GATTCGTA, the “PBM E-score” value rises from -0.00587 to 0.121.

Compared with ACTAGTCG, CCCCTTAG is lower in “PBM E-score” value: -0.0486 for the first, -0.24 for the second.

Compared with ACTCTAAG, CGATTGCA is higher in “PBM E-score” value: -0.0616 for the first, 0.128 for the second.

Compared with ATGCTATG, GCTGTTCC is lower in “PBM E-score” value: 0.103 for the first, -0.117 for the second.

Going from ATCAGGGA to AAGTTGGC, the “PBM E-score” value rises from -0.107 to -0.0678.

Going from CGTGTGAC to GCCATCCA, the “PBM E-score” value falls from -0.0548 to -0.19.

Compared with GTCCGTAA, ATCTAGTA is higher in “PBM E-score” value: -0.0675 for the first, 0.157 for the second.

Going from CCGGAGAA to CGAATAGA, the “PBM E-score” value falls from 0.0465 to -0.0249.

Compared with CCTTGGCG, ACCAGTTC is higher in “PBM E-score” value: -0.385 for the first, -0.103 for the second.

Compared with CATAAGCG, ACTTATTA is higher in “PBM E-score” value: 0.0692 for the first, 0.263 for the second.

Compared with GCACTCGA, AGGAGTAA is higher in “PBM E-score” value: -0.0644 for the first, 0.133 for the second.

Going from CTTCCACC to CCGGTACG, the “PBM E-score” value falls from -0.207 to -0.288.

Compared with GAGCTTAA, ATGGACCC is higher in “PBM E-score” value: -0.0469 for the first, -0.0319 for the second.

Compared with ATTATACG, AACCCTAC is lower in “PBM E-score” value: 0.244 for the first, -0.163 for the second.

Going from GGCATGCA to GTTTACAA, the “PBM E-score” value rises from -0.0341 to 0.148.

Compared with CTCATTAC, TCCGCCAA is lower in “PBM E-score” value: 0.224 for the first, -0.168 for the second.

First: ACGGCCTC
Second: ACTTGCTG
The “PBM E-score” value of the first is lower: -0.114 for the first, -0.0566 for the second.

First: GGCTCGTA
Second: ACATCTTG
The “PBM E-score” value of the first is higher: 0.0879 for the first, -0.0704 for the second.

First: AGATATTC
Second: AATAAACG
The “PBM E-score” value of the first is lower: 0.162 for the first, 0.193 for the second.

Compared with CAGAGTGC, AGCCTCTA is lower in “PBM E-score” value: -0.0777 for the first, -0.2 for the second.

Compared with CCCACCCC, CGAATGCA is lower in “PBM E-score” value: 0.0709 for the first, 0.0281 for the second.

First: AACAGGGA
Second: AGGCCAAG
The “PBM E-score” value of the first is higher: -0.0243 for the first, -0.226 for the second.
